19 molecules from PMC10163288 can be followed below.

The labels stand for the following.
B1: il2ra_site1_2b5i_normal_mot_a7d4ab743ae57deeac5d741f7278d18b_0001_af2_000000162_0001_36_49_H_._HHH_b2_04392_af2_0001_0000400026_0000001_0_af2pred_dldesign_0_af2 … (protein)
chain: SSSSSVLARKILKLAKKSMRRALAEGDEAAAADVTAAALAELRALGDEAAVAALEAFAASLSSSS
B2: il2ra_site2_2erj_normal_mot_HHH_b2_02500_af2_000000175_0001_19_35_H_._HHH_b1_03967_0001_0000200020_0000001_0 (protein)
chain: SSSSSDLLERAYELADLLLHLVSRNDREEFEEISREFEEIVERLQSENAREILENLEEELSSSSS
B3: il2ra_site1_1z92_sap_15_mot_HHH_b2_07916_000000165_0001_23_39_H_._HHH_b2_01633_af2_0001_0000200013_0000001_0_0001_af2pred_0001_af2pred_1 (protein)
chain: SSSSSSDELEEIVREIVEEFGLSEEDEKLLERDAEHAEKNGISDKSIERVLRDAAKRLSSSSSSS
B4: il2ra_site1_2b5i_sap_17_mot_HHH_b1_01540_000000292_0001_42_56_H_._HHH_b2_02924_af2_0001_0000200025_0000001_0_0001_af2pred_dldesign_0_af2pred (protein)
chain: SPEELLARLEEEYKDNPVAQEFINALRTLYEHFGDPELAIRSLLKLAKKAGDEEIAALAERALLE
B5: il2ra_site2_2erj_sap_20_mot_HHH_b2_06646_af2_000000081_0001_19_36_H_._ems_3hM_1437_0001_0000300025_0000001_0_0001 (protein)
chain: SSSSSHEEEVEELLEKAKEAYERGDLHLVYRLMVEALRVASEHQDDELQREIAEFVEELSSSSSS
B6: il2ra_site1_3nfp_normal_mot_HHH_b1_06312_000000077_0001_1_18_H_._HHH_b2_05775_af2_0001_0000100005_0000001_0_af2pred_0001_af2pred (protein)
chain: SSSSSSVHELRRLLEEALRLFRNGDPEEAEKVLEQAREIAEELGSELALRLVELAKKLVSSSSSS
B7: il2ra_site2_3nfp_sap_13_mot_HHH_b1_04644_af2_000000261_0001_42_57_H_._HHH_b2_04983_af2_0001_0000500031_0000001_0_0001 (protein)
chain: SSSSDREEELKELLEELERLVEEGDPEEVRRLAREISELVWKYNDHEAFAALNEILAKHYRSSSS
B8: il2ra_site1_1z92_sap_13_mot_HHH_b1_00697_000000055_0001_1_18_H_._HHH_b2_06296_0001_0000600021_0000001_0_0001 (protein)
chain: DEEDALRLAAEIAAKAAGVDSFEVEVSNGKLTLTVEGDEHLAEVIRKAVERFFEFFGVDVEVTYE
B9: il2ra_site1_1z92_sap_22_mot_HHH_b1_01245_000000029_0001_23_39_H_._HHH_b1_02889_af2_0001_0000100004_0000001_0_0001_af2pred_0001_af2pred (protein)
chain: ADEETVREHVESFAKFAGVPSVEVTSENGKFSVELEGDDDHARSAAKLIEKSAKVAGIDLEVEIE
B10: il2ra_site2_2erj_sap_22_mot_HHH_b2_07139_000000086_0001_40_57_H_._HHH_b2_03099_0001_0000300023_0000001_0_0001 (protein)
chain: SSSSTDEVRELFEEAHRLFKEGNEEELRELLEEVRKLAEELNDPALRALVRFLELAIKAFSSSSS
B11: il2ra_site2_2erj_normal_mot_HHH_b1_01197_000000128_0001_38_49_H_._HHH_b1_08340_0001_0000900033_0000001_0 (protein)
chain: SSSSDELEERIRELLEELEKLVKEGDLARVQEVAQEIAELLRELGDPELAKELNRLLQEAMSSSS
B12: il2ra_site2_3nfp_normal_mot_0136b98644bc9a8eb58b95019b738ebb_0001_1_000000071_0001_1_13_H_._HHH_b1_04998_0001_0000800011_0000001_0_af2pred_0001_af2pred_1 (protein)
chain: SSSSSDEVAELFRKVAERARKLTDPELQKQVLLLLAQAFLLLEEGNPEEAEKLLEEALELSSSSS
B13: il2ra_site2_3nfp_normal_mot_HHH_b2_04451_000000238_0001_21_37_H_._HHH_b2_06904_0001_0000100004_0000001_0 (protein)
chain: SSSSSSDEERIEELLELVEEIDDQFERLRVLLEASKLAAELGDEELAREVLRLFAEIQSSSSSSS
B14: il2ra_site2_3nfp_sap_17_mot_73f63e3ba0c5fbd29b02c38bc3203c89_0001_1_000000101_0001_17_33_H_._HHH_b1_05402_0001_0000200013_0000001_0_0001_af2pred_0001_af2pred (protein)
chain: SSSSSLEEVVERAKELAKEVTDQRVRFELRLLAFELERTGDPRLEELLERLIRLVEEALKGSSSS
B15: il2ra_site1_1z92_normal_mot_HHH_b1_00108_af2_000000035_0001_38_51_H_._753cdabf4d6139bcd7e966370e577bbb_0001_0001_0000300027_0000001_0_af2pred_0001_af2pred_1 (protein)
chain: SEEEELERKLKELGVPPAVVRNVVSLFLILKEQGASPESIEKILEKSAKVAKDPELERAIEIIIH
B16: il2ra_site1_3nfp_sap_15_mot_HHH_b1_00042_af2_000000196_0001_42_57_H_._HHH_b2_05531_0001_0000700045_0000001_0_0001_af2pred_0001_af2pred (protein)
chain: SSSSTRLREHLIRSAKRLAELLNDDEALRRIEKLEEEIEREGDPRLVQELFRLVEELIRRGSSSS
B17: il2ra_site1_2b5i_normal_mot_HHH_b1_06341_af2_000000029_0001_17_35_H_._HHH_b2_05139_af2_0001_0000300023_0000001_0_af2pred_dldesign_0_af2pred (protein)
chain: SSSSDEVYDEIDRLYTEALKLKRAGKKEEAKELLEKALELAQAANDEKAISQLTKLLESLSSSSS
B18: il2ra_site1_1z92_sap_20_mot_HHH_b1_07192_af2_000000222_0001_1_19_H_._HHH_b1_06866_af2_0001_0000100001_0000001_0_0001 (protein)
chain: SSSSDEEEEIKRLVREIVEELGLSEHTKEALERDAERDFELGLSERSIEMALRRAAERFLSSSSS
B19: il2ra_site2_3nfp_normal_mot_ems_3hM_287_af2_000000177_0001_46_64_H_._HHH_b2_05811_af2_0001_0000100005_0000001_0 (protein)
chain: SSSSSEEEAEERIEELLREAKEIPDPEERRRLIAEAAHLAVELNNFELFAAVTELLRELISSSSS

This is one part of the list.

The target in the test is il2ra, P01589. The experiment in a line: yeast display titration.
As for B1, the “apparent Kd” value was “inactive: no binding seen”. In the case of B2 it was “inactive: no binding seen”; in that of B3, “inactive: no binding seen”. B4: the “apparent Kd” value was “inactive: no binding seen”. The value for B5 was “inactive: no binding seen”.

Take B6: the “apparent Kd” value is “inactive: no binding seen”.

In the case of B7, the “apparent Kd” value is “inactive: no binding seen”.

As for B8, the “apparent Kd” value is “inactive: no binding seen”.

B9: the “apparent Kd” value is “inactive: no binding seen”. In the case of B10 it was “inactive: no binding seen”; in that of B11, “inactive: no binding seen”; in that of B12, “inactive: no binding seen”. The value for B13 was “inactive: no binding seen”.

In the case of B14, the “apparent Kd” value is “inactive: no binding seen”. As for B15, the “apparent Kd” value was “inactive: no binding seen”.

Turning to B16, the “apparent Kd” value is “inactive: no binding seen”. Turning to B17, the “apparent Kd” value is “inactive: no binding seen”. The value for B18 was “inactive: no binding seen”; that for B19 was “inactive: no binding seen”.
